Reference: PubChem BioAssay AID504834 (National Center for Advancing Translational Sciences (NCATS), 2011)
Out of some 320,000 compounds screened, about 22,000 (6.9%) were called active. Inconclusive results, whose numbers are uncertain, are shown with a selection of clear calls. Calls come from the whole dose curve; as a rule, active = well fitted inhibition curve with a large enough effect; inconclusive = small, poorly fitted or top-dose-only effect, or another doubt; inactive = no such curve, though single readings can be large or run the other way. Potencies of inconclusive entries are doubtful fits and often do not repeat.

Experiment: Primary qHTS for delayed death inhibitors of the malarial parasite plastid, 96 hour incubation
Settings: P. falciparum luciferase reporter growth; series mostly up to 28.7 µM
Summary of the method: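 P. falciparum expressing integrated firefly luciferase grown in erythrocytes (2% hematocrit, 0.05% parasitemia final) with compounds for 96 hours at 37 C, 5% CO2. Growth inhibition read as loss of luminescence after adding luciferase detection reagent.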
Potency is the fitted concentration of half-maximal effect.

| SMILES | Potency |
| --- | --- |
| CCOc1cc2[nH]c(=O)n(CCCC(=O)NCc3ccco3)c(=O)c2cc1OCC | inconclusive: 10.4 µM [inhibitor, partial curve] |
| COc1ccccc1-n1c(C)nc2cc(C(=O)NCc3ccc4c(c3)OCO4)ccc21 | inconclusive: 13.1 µM [inhibitor, single point] |
| CC(C)C(OC(=O)c1cccs1)C(=O)NCc1cccs1 (configuration not stated) | inconclusive: 10.4 µM [inhibitor, single point] |
| Cc1ccccc1NC1(C#N)CCCCC1 | inconclusive: 4.65 µM [inhibitor, full curve, poor fit] |
| CC(O)CNc1nc2c(c(=O)n(Cc3ccc(Br)cc3)c(=O)n2C)n1C (configuration not stated) | inconclusive: 5.86 µM [inhibitor, partial curve, poor fit] |
| COc1ccc(CN2CCNC(=O)C2CC(=O)NCCCn2cccn2)c(OC)c1 (configuration not stated) | inconclusive: 0.165 µM [inhibitor, full curve, poor fit] |
| O=C(OCC(=O)N1CCc2ccccc2C1)c1ccc(OC(F)F)cc1 | inactive |
| COc1ccc(-c2cc(C(=O)NCc3cccnc3)no2)cc1 | inconclusive: 9.28 µM [inhibitor, partial curve, poor fit] |
| CN(C)CCN(CC1CCCN(Cc2ccccc2F)C1)C(=O)Cc1ccccc1F (configuration not stated) | inactive |
| Cc1ccc(OCC(=O)Sc2ccc(C)cc2)cc1 | inactive |
| CC(=O)Nc1cccc(NS(=O)(=O)c2ccccc2[N+](=O)[O-])c1 | inactive |
| O=C(Nc1cc(C(F)(F)F)ccc1F)C1CCCC1 | inactive |
| O=C1NC(=Nc2ccccc2)S/C1=C\c1cccn1-c1ccccc1 | inconclusive: 18.5 µM [inhibitor, single point] |
| CC(c1ccccc1)n1cncc1C(=O)O (configuration not stated) | active: 1.47 µM |
| COCCCNC(=O)Cn1cc(/C=C2\C(=O)NC(=O)N(c3ccccc3F)C2=O)c2ccccc21 | inconclusive: 14.7 µM [inhibitor, partial curve, poor fit] |
| Cc1ccc2c(c1)cc(C(=O)N[C@@H](Cc1ccccc1)C(=O)O)n2C | inactive |
| O=C(COc1ccc2ccccc2c1)Nc1cccc(C(=O)Nc2ccccc2C(=O)O)c1 | inconclusive: 0.465 µM [inhibitor, full curve, poor fit] |
| COc1ccc(-c2cc3c(=O)n(CC(=O)NCc4ccc(C)cc4)ncn3n2)cc1 | inactive |
| COc1ccccc1/C=C/C(=O)Nc1cccnc1 | inconclusive: 11.7 µM [inhibitor, single point] |
| O=C(CN1CCN(C(=O)C2CCCO2)CC1)Nc1c(Cl)cccc1Cl (configuration not stated) | inconclusive: 3.29 µM [inhibitor, full curve] |
| Cc1ccc(C(C(=O)NC2CCCC2)N(Cc2cccnc2)C(=O)c2snc(C(N)=O)c2N)o1 (configuration not stated) | inconclusive: 11.7 µM [inhibitor, single point] |
| O=C(c1cccc(Br)c1)N1CCCC1 | inactive |
| O=C(NC1CCCC1)C1CCC(CNS(=O)(=O)c2ccc(F)cc2)CC1 (configuration not stated) | inconclusive: 18.5 µM [inhibitor, single point] |
| COc1cc(/C=C/C(=O)OCC(=O)Nc2c(C)n(C)n(-c3ccccc3)c2=O)ccc1O | inactive |

Two entries from above, as tab-separated lines.
SMILES	Potency
Cc1ccc2c(c1)cc(C(=O)N[C@@H](Cc1ccccc1)C(=O)O)n2C	inactive
O=C(COc1ccc2ccccc2c1)Nc1cccc(C(=O)Nc2ccccc2C(=O)O)c1	inconclusive: 0.465 µM [inhibitor, full curve, poor fit]

(cont.)

| SMILES | Potency |
| --- | --- |
| O=C1CCC(=O)N1c1ccccc1 | inactive |
| O=S(=O)(/N=C(\Sc1ccccc1)c1ccccc1)c1ccc(Cl)cc1 | inconclusive: 0.928 µM [inhibitor, partial curve] |
| Cc1cc2cc(C#N)c(N3CCOCC3)nc2cc1Cl | inconclusive: 10.4 µM [inhibitor, single point] |
| N#Cc1ccccc1OCC(=O)N1CCN(CC(=O)Nc2ccc(F)cc2)CC1 | inconclusive: 1.85 µM [inhibitor, partial curve] |
| Cc1ncc([N+](=O)[O-])n1Cc1ccc(F)cc1 | inconclusive: 2.62 µM [inhibitor, single point] |
| Cc1cn([C@@H](CCCCN)C(=O)NCCCCCCCCCCC(=O)N2CCNCC2)nn1 | inactive |
| CN1CCN(C(=O)CSc2nc(-c3cccs3)cc(-c3cccs3)c2C#N)CC1 | active: 2.08 µM |
| C=CCOc1c(Cl)cc(CNc2ccc(N(C)C)cc2)cc1OC | inconclusive: 1.65 µM [inhibitor, single point] |
| NC(=O)C1CCN(C(=O)Cc2ccsc2)CC1 | inconclusive: 18.5 µM [inhibitor, single point] |
| COc1cc(C(=O)Oc2ccccc2/C=N/NC(=O)c2ccc(C)c(Cl)c2)cc(OC)c1OC | inconclusive: 2.62 µM [inhibitor, single point] |
| COc1ccc(C(=O)NC(=C(Cl)Cl)S(=O)(=O)c2ccc(C)cc2)cc1 | inactive |
| COc1ccc(NC(=O)CN(C)C(=O)Cn2c(=O)oc3ccccc32)cc1 | inactive |
| O=C(c1cc(-c2cccs2)on1)N1CCOCC1 | inconclusive: 11.7 µM [inhibitor, single point] |
| CCOC(=O)c1ccc2[nH]c3c(c2c1)CCCC3NC=O (configuration not stated) | inconclusive: 5.22 µM [inhibitor, single point] |
| COc1ccccc1CCNC(=O)CCNS(=O)(=O)c1ccc(NC(C)=O)cc1 | inconclusive: 14.7 µM [inhibitor, single point] |
| O=C(c1csc(Nc2ccccc2Cl)n1)N1CCCC1 | active: 2.33 µM |
| N#Cc1cc2c([nH]c1=S)CCCC2 | inactive |
| Clc1ccccc1Cc1noc(CN2CCN3CCCC3C2)n1 (configuration not stated) | active: 2.94 µM |
| COc1ccc(C(=O)NC(C)c2nccs2)cc1OC1CCN(C(C)C)CC1 (configuration not stated) | inconclusive: 18.5 µM [inhibitor, single point] |
| COc1ccc(/C=C2\CCC(C3CCCC3)C2=O)c(OC)c1 (configuration not stated) | inactive |
| CCC1C(=NO)C(CC)C(c2ccccc2)NC1c1ccccc1 (configuration not stated) | inactive |
| Cc1ccc(S(=O)(=O)NC(=O)c2ccc(-c3ccc(-c4ccccc4)cc3)o2)c(C)c1 | inactive |
| COc1ccc(NC(=O)Cn2c(=O)n(CC3CCCO3)c(=O)c3ccccc32)c(OC)c1 (configuration not stated) | inconclusive: 6.57 µM [inhibitor, partial curve, poor fit] |
| COC(=O)c1c(N2C(=O)Nc3ccccc3N2O)sc(C)c1C | active: 5.22 µM |

| SMILES | Potency |
| --- | --- |
| O=C(CN(CC1CCCO1)C(=O)CNS(=O)(=O)c1ccc(F)cc1)NCC1CCCO1 (configuration not stated) | inconclusive: 13.1 µM [inhibitor, partial curve, poor fit] |
| COc1ccc(CN(C(=O)c2cc(=O)c3cc(C)cc(C)c3o2)C2CCS(=O)(=O)C2)cc1 (configuration not stated) | inconclusive: 4.15 µM [inhibitor, full curve, poor fit] |
| CCCC(=O)NC1=C(C#N)C2(CCCCC2)Cc2ccccc21 | inconclusive: 18.5 µM [inhibitor, single point] |
| Cc1cc(NC(=O)CCC(=O)N(CC(=O)NCC2CCCO2)c2cccc(C)c2C)no1 (configuration not stated) | inconclusive: 10.4 µM [inhibitor, partial curve, poor fit] |
| CCOc1cc(-c2cc(-c3ccccc3)nc(N)c2C#N)ccc1O | inconclusive: 4.15 µM [inhibitor, partial curve, poor fit] |
| COc1ccc(-n2c(C)c(C(C)=O)c3cc(O)ccc32)cc1 | inactive |
| Cc1sc2ncnc(N3CCC(C(=O)NCC(=O)Nc4ccc(F)c(F)c4)CC3)c2c1C | inconclusive: 11.7 µM [inhibitor, single point] |
| CN(CC(=O)Nc1ccc(F)cc1)C(=O)C1CCN(C(=O)Nc2ccccc2)CC1 | inconclusive: 18.5 µM [inhibitor, single point] |
| CCOc1ccc(NCc2nnc(SCC(=O)Nc3cc(C)on3)n2-c2ccc(OC)cc2)cc1 | inconclusive: 11.7 µM [inhibitor, partial curve, poor fit] |
| COc1ccc(C(CC(=O)NCC(OC)OC)NS(=O)(=O)c2ccc(Cl)cc2)cc1 (configuration not stated) | inconclusive: 4.15 µM [inhibitor, single point] |
| COC(=O)c1ccc(C2/C(=C(\O)c3cccc(OC)c3)C(=O)C(=O)N2CCCN2CCOCC2)cc1 (configuration not stated) | inactive |
| COc1cccc(-c2cc(C(=O)Nc3cc(C)nn3-c3ccccc3)no2)c1 | inconclusive: 20.8 µM [inhibitor, partial curve, poor fit] |
| CCOC(=O)c1cc(=O)c2ccc(OCc3ccccc3)cc2o1 | inactive |
| O=C(COc1ccc(F)cc1Br)N1CCc2ccccc21 | inactive |
| COc1ccc2sc(N(CCCN(C)C)C(=O)c3ccc(C(=O)c4ccccc4)cc3)nc2c1 | inconclusive: 18.5 µM [inhibitor, single point] |
| CN(c1cccc(NC(=O)COc2ccccc2)c1)S(C)(=O)=O | inactive |
| CCCn1c(SCC(=O)N(C)CC(=O)Nc2ccc(Cl)cc2)n[nH]c1=O | inactive |
| CCOC(=O)c1c(-c2ccc(C)cc2)csc1NC(=O)CCSc1nnc2ccccn12 | inactive |
| Cc1ccc(C(=O)NCCc2ccccc2)cc1S(=O)(=O)N1CCOCC1 | inconclusive: 0.928 µM [inhibitor, full curve] |
| O=C(O)c1cccc(N2C(=O)CSC2c2c(F)cccc2Cl)c1 (configuration not stated) | inconclusive: 18.5 µM [inhibitor, partial curve, poor fit] |
| COc1ccccc1COc1ccc2c(C)c(CC(=O)O)c(=O)oc2c1C | active: 6.57 µM |
| CCCCC1S/C(=N/N=C/c2ccco2)NC1=O (configuration not stated) | inconclusive: 5.22 µM [inhibitor, partial curve, poor fit] |
| Cc1ccc2c(c1)c1ncnc(N3CCN(c4ccccc4)CC3)c1n2C | inactive |
| CCOc1ccc(NC(=S)Nc2cc(OC)c(Cl)cc2OC)cc1 | inconclusive: 18.5 µM [inhibitor, single point] |

Some of these compounds in order of molar mass, ascending:

| SMILES | Potency |
| --- | --- |
| COc1ccc(-n2c(C)c(C(C)=O)c3cc(O)ccc32)cc1 | inactive |
| CN(c1cccc(NC(=O)COc2ccccc2)c1)S(C)(=O)=O | inactive |
| Cc1sc2ncnc(N3CCC(C(=O)NCC(=O)Nc4ccc(F)c(F)c4)CC3)c2c1C | inconclusive: 11.7 µM [inhibitor, single point] |
| CCOC(=O)c1c(-c2ccc(C)cc2)csc1NC(=O)CCSc1nnc2ccccn12 | inactive |
